Data reported in patent US20110143963A1.
Positions count from the first letter of the chain named. No constants are given. Whether binding was seen depends on the method and setting. Some entries that bind do so weakly or less than the wild type.

Assays:
GPLDTWV = target: T1, GPLDTWV; experiment: phage-display sorting of C-terminal peptide Library 1 with the clamp, enriched clones sequenced
T1 sequence (peptide): GPLDTWV

GPIDTWV = target: T2, GPIDTWV; experiment: as above
T2 sequence (peptide): GPIDTWV

GEIDTWV = target: T3, GEIDTWV; experiment: as above
T3 sequence (peptide): GEIDTWV

GPMDTWV = target: T4, GPMDTWV; experiment: as above
T4 sequence (peptide): GPMDTWV

[1] = target: T5, …; experiment: phage-display sorting of C-terminal peptide Library 2 with the clamp, enriched clones sequenced [cont'd]
T5 sequence (peptide): KRGSIDSWV

[2] = target: T6, …; experiment: as above; remark: listed apart in the source
T6 sequence (peptide): KRMPIDSWV

[3] = target: T7, …; experiment: as above; remark: listed apart in the source
T7 sequence (peptide): PRGSIDSWV

[4] = target: T8, …; experiment: as above; remark: listed apart in the source
T8 sequence (peptide): KRMPLDSWV

[5] = target: T9, …; experiment: as above; remark: listed apart in the source
T9 sequence (peptide): ERGSIDSWV

[6] = target: T10, …; experiment: as above; remark: listed apart in the source
T10 sequence (peptide): PRGELDSWV

[7] = target: T11, …; experiment: as above; remark: listed apart in the source
T11 sequence (peptide): ERGAIDSWV

[8] = target: T12, …; experiment: as above; remark: listed apart in the source
T12 sequence (peptide): KRGAIDSWV

[9] = target: T13, …; experiment: as above; remark: listed apart in the source
T13 sequence (peptide): PRMPIDSWV

[10] = target: T14, …; experiment: as above; remark: listed apart in the source
T14 sequence (peptide): DRMPFDSWV

[11] = target: T15, …; experiment: as above; remark: listed apart in the source
T15 sequence (peptide): KRGPIDSWV

GSIDTWV = target: T16, GSIDTWV; experiment: phage-display sorting of C-terminal peptide Library 1 with the clamp, enriched clones sequenced
T16 sequence (peptide): GSIDTWV

SPIDTWV = target: T17, SPIDTWV; experiment: as above
T17 sequence (peptide): SPIDTWV

[12] = target: T18, …; experiment: phage-display sorting of C-terminal peptide Library 2 with the clamp, enriched clones sequenced [cont'd]; remark: listed apart in the source
T18 sequence (peptide): VRGSIDSWV

[13] = target: T19, …; experiment: as above; remark: listed apart in the source
T19 sequence (peptide): NRGRMDSWV

[14] = target: T20, …; experiment: as above; remark: listed apart in the source
T20 sequence (peptide): KRGSMDSWV

[15] = target: T21, …; experiment: as above; remark: listed apart in the source
T21 sequence (peptide): KRSNIDSWV

[16] = target: T22, …; experiment: as above; remark: listed apart in the source
T22 sequence (peptide): ARGSIDSWV

[17] = target: T23, …; experiment: as above; remark: listed apart in the source
T23 sequence (peptide): VRGEIDSWV

[18] = target: T24, …; experiment: as above; remark: listed apart in the source
T24 sequence (peptide): ERFSIDSWV

[19] = target: T25, …; experiment: as above; remark: listed apart in the source
T25 sequence (peptide): RRGSIDSWV

[20] = target: T26, …; experiment: as above; remark: listed apart in the source
T26 sequence (peptide): KRFEIDSWV

[21] = target: T27, …; experiment: as above; remark: listed apart in the source
T27 sequence (peptide): FRGEIDSWV

[22] = target: T28, …; experiment: as above; remark: listed apart in the source
T28 sequence (peptide): SRGAIDSWV

[23] = target: T29, …; experiment: as above; remark: listed apart in the source
T29 sequence (peptide): KRFNIDSWV

[24] = target: T30, …; experiment: as above; remark: listed apart in the source
T30 sequence (peptide): KRGQIDSWV

[25] = target: T31, …; experiment: as above; remark: listed apart in the source
T31 sequence (peptide): DRGSMDSWV

Measured: binding

B1: enhanced PDZ-b (designed binder)
chain: MKHHHHHHHHHHSSDYKDDDDKGENLYFQGSPELGFSISGGVGGRGNPFRPDDDGIFVTRVQPEGPASKLLQPGDKIIQANGYSFINIEHGQAVSLLKTFQNTVELIIVREVGNGAKQEIRVRVEKDGGSGGVSSVPTNLEVVAATPTSLLISWDAYYDSHVSYYRITYGETGGNSPVQEFTVPGSKSTATISGLKPGVDYTITVYAHYNYHYYSSPISINYRT
binds: GPLDTWV | GPIDTWV | GEIDTWV | GPMDTWV | [1] | [2] | [3] | [4] | [5] | [6] | [7] | [8] | [9] | [10] | [11]

B2: ePDZ-b1 (designed binder)
chain: B1 chain with Y158R, D159E, S160L, H161P
not listed: GEIDTWV | GPMDTWV | [2] | [3] | [4] | [5] | [6] | [7] | [8] | [9] | [10] | [11]
binds: all other assays above
